PubChem BioAssay AID1224830 – NIAID, 2016
The deposit covers about 18,000 reagents; this is a part drawn at random. Over the whole deposit, about 2,900 (16%) got an active call. 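Calls are made per well; low scores hint the gene aids the LPS response, high scores that it dampens it.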 Entries without a mark were called inactive. Repeated entries: four replicate wells of each siRNA pool. No sequences are given here.

Assay: 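Host factors that control LPS-induced TNF expression in human macrophages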 (primary screen)
Cells: human THP-1 monocytic leukaemia cells, TNF dual-luciferase reporter clone, PMA-differentiated to macrophage-like cells
Reagent: siRNA pool against human genes, 50 nM
Time to read-out: LPS for 4 h, given about 3 days after siRNA transfection
Conditions: bacterial LPS (TLR4 ligand), 10 ng/ml
Measured: 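Ratio of firefly to renilla light, scaled to the plate median and expressed as a robust z-score per replicate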
Direction: TNF reporter robust z-score: higher = stronger TNF reporter response to LPS
Active means: 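a well is active when its z-score exceeds 2.8 or falls below -1.5; control wells carry no call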

target gene	TNF reporter robust z-score
CDX2 (caudal type homeobox 2)	-0.71
CDX2 (caudal type homeobox 2)	0.15
CDX2 (caudal type homeobox 2)	-1.14
CDX2 (caudal type homeobox 2)	-1.16
PPP2CA (protein phosphatase 2 catalytic subunit alpha)	1.66
PPP2CA (protein phosphatase 2 catalytic subunit alpha)	-0.12
PPP2CA (protein phosphatase 2 catalytic subunit alpha)	0.76
PPP2CA (protein phosphatase 2 catalytic subunit alpha)	1
KRTAP10-5 (keratin associated protein 10-5)	0.73
KRTAP10-5 (keratin associated protein 10-5)	0.89
KRTAP10-5 (keratin associated protein 10-5)	-0.71
KRTAP10-5 (keratin associated protein 10-5)	0.4
TRIR (telomerase RNA component interacting RNase)	-0.94
TRIR (telomerase RNA component interacting RNase)	-0.61
TRIR (telomerase RNA component interacting RNase)	-0.19
TRIR (telomerase RNA component interacting RNase)	0.1
FAM50A (family with sequence similarity 50 member A)	-0.51
FAM50A (family with sequence similarity 50 member A)	0.54
FAM50A (family with sequence similarity 50 member A)	1.11
FAM50A (family with sequence similarity 50 member A)	-0.39
CERS6 (ceramide synthase 6)	0.26
CERS6 (ceramide synthase 6)	0.72
CERS6 (ceramide synthase 6)	0.86
CERS6 (ceramide synthase 6)	0.91
KLRF1 (killer cell lectin like receptor F1)	-1.24
KLRF1 (killer cell lectin like receptor F1)	-1.5
KLRF1 (killer cell lectin like receptor F1)	-0.51
KLRF1 (killer cell lectin like receptor F1)	-1.09
IL20RA (interleukin 20 receptor subunit alpha)	-0.83
IL20RA (interleukin 20 receptor subunit alpha)	-1
IL20RA (interleukin 20 receptor subunit alpha)	-0.59
IL20RA (interleukin 20 receptor subunit alpha)	-0.44
CD5L (CD5 molecule like)	-1.01
CD5L (CD5 molecule like)	-0.24
CD5L (CD5 molecule like)	-0.66
FXYD2 (FXYD domain containing ion transport regulator 2)	-1.18
FXYD2 (FXYD domain containing ion transport regulator 2)	0.06
FXYD2 (FXYD domain containing ion transport regulator 2)	-0.74
FXYD2 (FXYD domain containing ion transport regulator 2)	1.16
WDR46 (WD repeat domain 46)	-0.59
WDR46 (WD repeat domain 46)	-0.16
WDR46 (WD repeat domain 46)	-0.67
WDR46 (WD repeat domain 46)	-0.14
ZNF558 (zinc finger protein 558)	0.92
ZNF558 (zinc finger protein 558)	1.58
ZNF558 (zinc finger protein 558)	0.44
ZNF558 (zinc finger protein 558)	0.25
IRAK1 (interleukin 1 receptor associated kinase 1)	-1.2
IRAK1 (interleukin 1 receptor associated kinase 1)	-0.88
IRAK1 (interleukin 1 receptor associated kinase 1)	-0.75
IRAK1 (interleukin 1 receptor associated kinase 1)	0.31
CCL18 (C-C motif chemokine ligand 18)	-0.62
CCL18 (C-C motif chemokine ligand 18)	-1.28
CCL18 (C-C motif chemokine ligand 18)	-1.34
CCL18 (C-C motif chemokine ligand 18)	-1.02
SLC52A1	-0.31
SLC52A1	0.15
SLC52A1	-0.4
SLC52A1	0.61
PCDHB5 (protocadherin beta 5)	0.7
PCDHB5 (protocadherin beta 5)	1.69
PCDHB5 (protocadherin beta 5)	0.99
PCDHB5 (protocadherin beta 5)	0.8
LNX2 (ligand of numb-protein X 2)	2.68
LNX2 (ligand of numb-protein X 2)	1.5
LNX2 (ligand of numb-protein X 2)	0.25
LNX2 (ligand of numb-protein X 2)	1.95
POLR2D (RNA polymerase II subunit D)	-1.12
POLR2D (RNA polymerase II subunit D)	-0.64
POLR2D (RNA polymerase II subunit D)	-0.03
POLR2D (RNA polymerase II subunit D)	-0.85
SSR3 (signal sequence receptor subunit 3)	-0.38
SSR3 (signal sequence receptor subunit 3)	0.96
SSR3 (signal sequence receptor subunit 3)	0.84
SSR3 (signal sequence receptor subunit 3)	0.8
DNAH6 (dynein axonemal heavy chain 6)	0.12
DNAH6 (dynein axonemal heavy chain 6)	0.27
DNAH6 (dynein axonemal heavy chain 6)	1.22
DNAH6 (dynein axonemal heavy chain 6)	0
FRAT1 (FRAT regulator of Wnt signaling pathway 1)	-1.64 (active)
FRAT1 (FRAT regulator of Wnt signaling pathway 1)	0.06
FRAT1 (FRAT regulator of Wnt signaling pathway 1)	-0.72
FRAT1 (FRAT regulator of Wnt signaling pathway 1)	0.91
CHMP4B (charged multivesicular body protein 4B)	-0.58
CHMP4B (charged multivesicular body protein 4B)	0.36
CHMP4B (charged multivesicular body protein 4B)	0.57
CHMP4B (charged multivesicular body protein 4B)	1.32
NT5C3B (5'-nucleotidase, cytosolic IIIB)	0.46
NT5C3B (5'-nucleotidase, cytosolic IIIB)	1.31
NT5C3B (5'-nucleotidase, cytosolic IIIB)	2.29
NT5C3B (5'-nucleotidase, cytosolic IIIB)	5.33 (active)
DZIP3 (DAZ interacting zinc finger protein 3)	-0.15
DZIP3 (DAZ interacting zinc finger protein 3)	-0.93
DZIP3 (DAZ interacting zinc finger protein 3)	2.8 (active)
DZIP3 (DAZ interacting zinc finger protein 3)	0.75
PEBP1 (phosphatidylethanolamine binding protein 1)	-0.76
PEBP1 (phosphatidylethanolamine binding protein 1)	-0.85
PEBP1 (phosphatidylethanolamine binding protein 1)	-1.78 (active)
PEBP1 (phosphatidylethanolamine binding protein 1)	-0.99
PABPC3 (poly(A) binding protein cytoplasmic 3)	0.02
PABPC3 (poly(A) binding protein cytoplasmic 3)	0.05
PABPC3 (poly(A) binding protein cytoplasmic 3)	-0.35
PABPC3 (poly(A) binding protein cytoplasmic 3)	-0.47
REG3G (regenerating family member 3 gamma)	0.34
REG3G (regenerating family member 3 gamma)	0.36
REG3G (regenerating family member 3 gamma)	-0.42
REG3G (regenerating family member 3 gamma)	0.52
PROX1 (prospero homeobox 1)	0.03
PROX1 (prospero homeobox 1)	0.42
PROX1 (prospero homeobox 1)	-0.08
PROX1 (prospero homeobox 1)	0.15

Reagents above called active, once more:
target gene	TNF reporter robust z-score
FRAT1 (FRAT regulator of Wnt signaling pathway 1)	-1.64 (active)
NT5C3B (5'-nucleotidase, cytosolic IIIB)	5.33 (active)
DZIP3 (DAZ interacting zinc finger protein 3)	2.8 (active)
PEBP1 (phosphatidylethanolamine binding protein 1)	-1.78 (active)
